# According to publication PMC3828177:
# Molecular target: HA-E4orf4 (wild type), expressed in yeast (human adenovirus)
# Assay: co-IP; lysates of cdc55Δ yeast (YS95) expressing FLAG-Cdc55 species and galactose-induced HA-E4orf4; reciprocal anti-FLAG and anti-HA precipitations; blots with anti-HA, anti-FLAG and anti-Tpd3
row,Binder,binding
1,"FLAG-Cdc55 (wild type) (protein, UniProt Q00362 1-526) MAQNNFDFKFSQCFGDKADIVVTEADLITAVEFDYTGNYLATGDKGGRVVLFERSNSRHCEYKFLTEFQSHDAEFDYLKSLEIEEKINEIKWLRPTQRSHFLLSTNDKTIKLWKVYEKNIKLVSQNNLTEGVTFAKKGKPDNHNSRGGSVRAVLSLQSLKLPQLSQHDKIIAATPKRIYSNAHTYHINSISLNSDQETFLSADDLRINLWNLDIPDQSFNIVDIKPTNMEELTEVITSAEFHPQECNLFMYSSSKGTIKLCDMRQNSLCDNKTKTFEEYLDPINHNFFTEITSSISDIKFSPNGRYIASRDYLTVKIWDVNMDNKPLKTINIHEQLKERLSDTYENDAIFDKFEVNFSGDSSSVMTGSYNNNFMIYPNVVTSGDNDNGIVKTFDEHNAPNSNSNKNIHNSIQNKDSSSSGNSHKRRSNGRNTGMVGSSNSSRSSIAGGEGANSEDSGTEMNEIVLQADKTAFRNKRYGSLAQRSARNKDWGDDIDFKKNILHFSWHPRENSIAVAATNNLFIFSAL",binds
2,"FLAG-Cdc55 D342K (protein, UniProt Q00362 1-526) MAQNNFDFKFSQCFGDKADIVVTEADLITAVEFDYTGNYLATGDKGGRVVLFERSNSRHCEYKFLTEFQSHDAEFDYLKSLEIEEKINEIKWLRPTQRSHFLLSTNDKTIKLWKVYEKNIKLVSQNNLTEGVTFAKKGKPDNHNSRGGSVRAVLSLQSLKLPQLSQHDKIIAATPKRIYSNAHTYHINSISLNSDQETFLSADDLRINLWNLDIPDQSFNIVDIKPTNMEELTEVITSAEFHPQECNLFMYSSSKGTIKLCDMRQNSLCDNKTKTFEEYLDPINHNFFTEITSSISDIKFSPNGRYIASRDYLTVKIWDVNMDNKPLKTINIHEQLKERLSKTYENDAIFDKFEVNFSGDSSSVMTGSYNNNFMIYPNVVTSGDNDNGIVKTFDEHNAPNSNSNKNIHNSIQNKDSSSSGNSHKRRSNGRNTGMVGSSNSSRSSIAGGEGANSEDSGTEMNEIVLQADKTAFRNKRYGSLAQRSARNKDWGDDIDFKKNILHFSWHPRENSIAVAATNNLFIFSAL",binds
3,"FLAG-Cdc55 E345K (protein, UniProt Q00362 1-526) MAQNNFDFKFSQCFGDKADIVVTEADLITAVEFDYTGNYLATGDKGGRVVLFERSNSRHCEYKFLTEFQSHDAEFDYLKSLEIEEKINEIKWLRPTQRSHFLLSTNDKTIKLWKVYEKNIKLVSQNNLTEGVTFAKKGKPDNHNSRGGSVRAVLSLQSLKLPQLSQHDKIIAATPKRIYSNAHTYHINSISLNSDQETFLSADDLRINLWNLDIPDQSFNIVDIKPTNMEELTEVITSAEFHPQECNLFMYSSSKGTIKLCDMRQNSLCDNKTKTFEEYLDPINHNFFTEITSSISDIKFSPNGRYIASRDYLTVKIWDVNMDNKPLKTINIHEQLKERLSDTYKNDAIFDKFEVNFSGDSSSVMTGSYNNNFMIYPNVVTSGDNDNGIVKTFDEHNAPNSNSNKNIHNSIQNKDSSSSGNSHKRRSNGRNTGMVGSSNSSRSSIAGGEGANSEDSGTEMNEIVLQADKTAFRNKRYGSLAQRSARNKDWGDDIDFKKNILHFSWHPRENSIAVAATNNLFIFSAL",binds
4,"FLAG-Cdc55 E82K (protein, UniProt Q00362 1-526) MAQNNFDFKFSQCFGDKADIVVTEADLITAVEFDYTGNYLATGDKGGRVVLFERSNSRHCEYKFLTEFQSHDAEFDYLKSLKIEEKINEIKWLRPTQRSHFLLSTNDKTIKLWKVYEKNIKLVSQNNLTEGVTFAKKGKPDNHNSRGGSVRAVLSLQSLKLPQLSQHDKIIAATPKRIYSNAHTYHINSISLNSDQETFLSADDLRINLWNLDIPDQSFNIVDIKPTNMEELTEVITSAEFHPQECNLFMYSSSKGTIKLCDMRQNSLCDNKTKTFEEYLDPINHNFFTEITSSISDIKFSPNGRYIASRDYLTVKIWDVNMDNKPLKTINIHEQLKERLSDTYENDAIFDKFEVNFSGDSSSVMTGSYNNNFMIYPNVVTSGDNDNGIVKTFDEHNAPNSNSNKNIHNSIQNKDSSSSGNSHKRRSNGRNTGMVGSSNSSRSSIAGGEGANSEDSGTEMNEIVLQADKTAFRNKRYGSLAQRSARNKDWGDDIDFKKNILHFSWHPRENSIAVAATNNLFIFSAL",binds
5,"FLAG-Cdc55 E85K (protein, UniProt Q00362 1-526) MAQNNFDFKFSQCFGDKADIVVTEADLITAVEFDYTGNYLATGDKGGRVVLFERSNSRHCEYKFLTEFQSHDAEFDYLKSLEIEKKINEIKWLRPTQRSHFLLSTNDKTIKLWKVYEKNIKLVSQNNLTEGVTFAKKGKPDNHNSRGGSVRAVLSLQSLKLPQLSQHDKIIAATPKRIYSNAHTYHINSISLNSDQETFLSADDLRINLWNLDIPDQSFNIVDIKPTNMEELTEVITSAEFHPQECNLFMYSSSKGTIKLCDMRQNSLCDNKTKTFEEYLDPINHNFFTEITSSISDIKFSPNGRYIASRDYLTVKIWDVNMDNKPLKTINIHEQLKERLSDTYENDAIFDKFEVNFSGDSSSVMTGSYNNNFMIYPNVVTSGDNDNGIVKTFDEHNAPNSNSNKNIHNSIQNKDSSSSGNSHKRRSNGRNTGMVGSSNSSRSSIAGGEGANSEDSGTEMNEIVLQADKTAFRNKRYGSLAQRSARNKDWGDDIDFKKNILHFSWHPRENSIAVAATNNLFIFSAL",binds
6,"FLAG-Cdc55 K86E (protein, UniProt Q00362 1-526) MAQNNFDFKFSQCFGDKADIVVTEADLITAVEFDYTGNYLATGDKGGRVVLFERSNSRHCEYKFLTEFQSHDAEFDYLKSLEIEEEINEIKWLRPTQRSHFLLSTNDKTIKLWKVYEKNIKLVSQNNLTEGVTFAKKGKPDNHNSRGGSVRAVLSLQSLKLPQLSQHDKIIAATPKRIYSNAHTYHINSISLNSDQETFLSADDLRINLWNLDIPDQSFNIVDIKPTNMEELTEVITSAEFHPQECNLFMYSSSKGTIKLCDMRQNSLCDNKTKTFEEYLDPINHNFFTEITSSISDIKFSPNGRYIASRDYLTVKIWDVNMDNKPLKTINIHEQLKERLSDTYENDAIFDKFEVNFSGDSSSVMTGSYNNNFMIYPNVVTSGDNDNGIVKTFDEHNAPNSNSNKNIHNSIQNKDSSSSGNSHKRRSNGRNTGMVGSSNSSRSSIAGGEGANSEDSGTEMNEIVLQADKTAFRNKRYGSLAQRSARNKDWGDDIDFKKNILHFSWHPRENSIAVAATNNLFIFSAL",binds
7,"FLAG-Cdc55 E84K (protein, UniProt Q00362 1-526) MAQNNFDFKFSQCFGDKADIVVTEADLITAVEFDYTGNYLATGDKGGRVVLFERSNSRHCEYKFLTEFQSHDAEFDYLKSLEIKEKINEIKWLRPTQRSHFLLSTNDKTIKLWKVYEKNIKLVSQNNLTEGVTFAKKGKPDNHNSRGGSVRAVLSLQSLKLPQLSQHDKIIAATPKRIYSNAHTYHINSISLNSDQETFLSADDLRINLWNLDIPDQSFNIVDIKPTNMEELTEVITSAEFHPQECNLFMYSSSKGTIKLCDMRQNSLCDNKTKTFEEYLDPINHNFFTEITSSISDIKFSPNGRYIASRDYLTVKIWDVNMDNKPLKTINIHEQLKERLSDTYENDAIFDKFEVNFSGDSSSVMTGSYNNNFMIYPNVVTSGDNDNGIVKTFDEHNAPNSNSNKNIHNSIQNKDSSSSGNSHKRRSNGRNTGMVGSSNSSRSSIAGGEGANSEDSGTEMNEIVLQADKTAFRNKRYGSLAQRSARNKDWGDDIDFKKNILHFSWHPRENSIAVAATNNLFIFSAL",binds weakly
8,"FLAG-Cdc55 D347K (protein, UniProt Q00362 1-526) MAQNNFDFKFSQCFGDKADIVVTEADLITAVEFDYTGNYLATGDKGGRVVLFERSNSRHCEYKFLTEFQSHDAEFDYLKSLEIEEKINEIKWLRPTQRSHFLLSTNDKTIKLWKVYEKNIKLVSQNNLTEGVTFAKKGKPDNHNSRGGSVRAVLSLQSLKLPQLSQHDKIIAATPKRIYSNAHTYHINSISLNSDQETFLSADDLRINLWNLDIPDQSFNIVDIKPTNMEELTEVITSAEFHPQECNLFMYSSSKGTIKLCDMRQNSLCDNKTKTFEEYLDPINHNFFTEITSSISDIKFSPNGRYIASRDYLTVKIWDVNMDNKPLKTINIHEQLKERLSDTYENKAIFDKFEVNFSGDSSSVMTGSYNNNFMIYPNVVTSGDNDNGIVKTFDEHNAPNSNSNKNIHNSIQNKDSSSSGNSHKRRSNGRNTGMVGSSNSSRSSIAGGEGANSEDSGTEMNEIVLQADKTAFRNKRYGSLAQRSARNKDWGDDIDFKKNILHFSWHPRENSIAVAATNNLFIFSAL",no binding
9,"FLAG-Cdc55 D342K/E345K/D347K (protein, UniProt Q00362 1-526) MAQNNFDFKFSQCFGDKADIVVTEADLITAVEFDYTGNYLATGDKGGRVVLFERSNSRHCEYKFLTEFQSHDAEFDYLKSLEIEEKINEIKWLRPTQRSHFLLSTNDKTIKLWKVYEKNIKLVSQNNLTEGVTFAKKGKPDNHNSRGGSVRAVLSLQSLKLPQLSQHDKIIAATPKRIYSNAHTYHINSISLNSDQETFLSADDLRINLWNLDIPDQSFNIVDIKPTNMEELTEVITSAEFHPQECNLFMYSSSKGTIKLCDMRQNSLCDNKTKTFEEYLDPINHNFFTEITSSISDIKFSPNGRYIASRDYLTVKIWDVNMDNKPLKTINIHEQLKERLSKTYKNKAIFDKFEVNFSGDSSSVMTGSYNNNFMIYPNVVTSGDNDNGIVKTFDEHNAPNSNSNKNIHNSIQNKDSSSSGNSHKRRSNGRNTGMVGSSNSSRSSIAGGEGANSEDSGTEMNEIVLQADKTAFRNKRYGSLAQRSARNKDWGDDIDFKKNILHFSWHPRENSIAVAATNNLFIFSAL",no binding
10,"FLAG-Cdc55 E82K/E84K/E85K/K86E (protein, UniProt Q00362 1-526) MAQNNFDFKFSQCFGDKADIVVTEADLITAVEFDYTGNYLATGDKGGRVVLFERSNSRHCEYKFLTEFQSHDAEFDYLKSLKIKKEINEIKWLRPTQRSHFLLSTNDKTIKLWKVYEKNIKLVSQNNLTEGVTFAKKGKPDNHNSRGGSVRAVLSLQSLKLPQLSQHDKIIAATPKRIYSNAHTYHINSISLNSDQETFLSADDLRINLWNLDIPDQSFNIVDIKPTNMEELTEVITSAEFHPQECNLFMYSSSKGTIKLCDMRQNSLCDNKTKTFEEYLDPINHNFFTEITSSISDIKFSPNGRYIASRDYLTVKIWDVNMDNKPLKTINIHEQLKERLSDTYENDAIFDKFEVNFSGDSSSVMTGSYNNNFMIYPNVVTSGDNDNGIVKTFDEHNAPNSNSNKNIHNSIQNKDSSSSGNSHKRRSNGRNTGMVGSSNSSRSSIAGGEGANSEDSGTEMNEIVLQADKTAFRNKRYGSLAQRSARNKDWGDDIDFKKNILHFSWHPRENSIAVAATNNLFIFSAL",no binding

# No constants are given. Whether binding was seen depends on the method and setting. Binding seen in cells or lysates may run through a third protein. A result given as binding can be weak or reduced; the word gives no strength. Sequences can lack the tags named with a protein.
